Measurements reported in PubChem BioAssay AID743121 (NCATS, 2013).

Test: 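Knock-downs that sensitise breast cancer cells to camptothecin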 (primary screen)
Cells: MDA-MB-231 cells, a human breast cancer line
Reagents: single siRNA against human genes, 20 nM siRNA (0.8 pmol per well)
Time to read-out: 120 h (drug added 48 h after transfection, read 72 h later)
Conditions: camptothecin 20 nM (about EC30) for 72 h; vehicle 0.1% DMSO in parallel plates
Read-out: 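CellTiter-Glo ATP signal, scaled to control siRNA as percent viability; sensitisation given as log2 of untreated divided by camptothecin-treated viability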
Scale: log2 vehicle/camptothecin viability: higher = stronger sensitisation to camptothecin
Active means: 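Each gene scored by redundant siRNA activity (RSA) over its individual siRNA ratios; a gene is called active at p < 0.001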
The whole screen tested about 26,000 reagents; shown is a random part of them. Over the whole deposit, 167 (0.63%) got an active call. 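Calls are per gene from RSA p-values that are not deposited; an individual active-marked siRNA can sensitise only weakly.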 Unmarked entries are inactive. The numbers tell different reagents against one gene apart. Not all columns of the deposit are shown.

log2 vehicle/camptothecin viability, by gene and reagent
AFDN: #1 0.237; #2 0; #3 -0.473; #4 -0.395
GPR17: #1 0.246; #2 -0.0183; #3 -0.0958; #4 -0.704
LIPC: #1 -0.0961; #2 -0.00959; #3 -0.155; #4 -0.225
RNF10: #1 -0.409; #2 -0.464; #3 -0.516
TRAF6: #1 0.971 (active); #2 0.287 (active); #3 0.222 (active); #4 0.159 (active)
MUC4: #1 0.21; #2 -0.459; #3 -0.395
STAT5A: #1 -0.106; #2 -0.134; #3 0.000933; #4 -0.344
GRM5P1: #1 -0.13; #2 0.222; #3 -0.176; #4 0.409
ACLY: #1 -0.467; #2 -0.337; #3 0.677
CD44: #1 -0.00378; #2 -0.123; #3 0.0465
LTB: #1 -0.35; #2 0.373; #3 -0.443; #4 -0.0329
CD5: #1 0.174; #2 0.0309; #3 -0.0163; #4 -0.17
SCN8A: #1 -0.118; #2 -0.509; #3 0.529
HTR3B: #1 -0.37; #2 -0.00804; #3 -0.0288; #4 -0.147
PCDH9: #1 -0.235; #2 -0.394; #3 -0.365; #4 -0.37
BPIFB2: #1 -0.231; #2 -0.279; #3 -0.335; #4 0.0685
TCF21: #1 -0.276; #2 -0.241; #3 0.753; #4 0.168; #5 -0.0907; #6 -0.307; #7 -0.289; #8 -0.0215
NUB1: #1 0.172; #2 -0.242; #3 -0.0763; #4 0.026
PLXNA4: #1 -0.729; #2 -0.229; #3 -0.408; #4 0.113
EPHA4: #1 -0.614; #2 0.113; #3 -0.109; #4 -0.363
GPR108: #1 -0.198; #2 -0.0338; #3 0.114; #4 0.189
AQP5: #1 -0.36; #2 -0.368; #3 -0.386
PAX6: #1 -0.154; #2 0.116; #3 0.118; #4 -0.805

Records listed so far whose gene name starts with S or s:
log2 vehicle/camptothecin viability, by gene and reagent
STAT5A: #1 -0.106; #2 -0.134; #3 0.000933; #4 -0.344
SCN8A: #1 -0.118; #2 -0.509; #3 0.529
